{
  "source": "paper PMC12040169",
  "about": "(PLOS Biology, 2025)",
  "note": "This is one part of the list.",
  "data": [
    {"test_system": "T1, CTL2-GFP (C. trachomatis L2/434/Bu, GFP-expressing)", "T1 construct": "L2/434/Bu, GFP-expressing", "set-up": "species or system HeLa; Intracellular C. trachomatis growth in HeLa cells, bulk GFP fluorescence relative to DMSO", "details": "bulk GFP, single well; 28.5 h, 10 µM; inhibitor", "units": {"% of control remaining": "%"}, "values": [
      {"smiles": "COCCNc1ncnc2sc3c(c12)CCCC3", "note": "[CBK287583]", "% of control remaining": 107.289},
      {"smiles": "O=C(NC(=S)Nn1cnnc1)c1ccccc1", "note": "[CBK028188]", "% of control remaining": 110.978},
      {"smiles": "Cc1nc(C2CN(Cc3cc4ccccc4nc3Cl)CCO2)no1", "note": "(stereo not drawn) [CBK305381]", "% of control remaining": 106.444},
      {"smiles": "O=C(Nc1ccc(I)cc1C(=O)NCCN1CCOCC1)c1ccccc1Cl", "note": "[CBK266245]", "% of control remaining": 64.907},
      {"smiles": "O=C(/C(=C\\c1ccc([N+](=O)[O-])cc1)n1cncn1)c1ccc(Cl)cc1Cl", "note": "[CBK262145]", "% of control remaining": 82.017},
      {"smiles": "C[C@]1(CO)[C@H]2Cc3sc(-c4ccccc4)nc3[C@@H](CC(=O)O)[C@]2(C)CC[C@H]1O", "note": "[CBK289572]", "% of control remaining": 139.697},
      {"smiles": "CCOc1ccc(NCCCCO)cc1", "note": "[CBK264386]", "% of control remaining": 125.731},
      {"smiles": "Cc1nc(C(Cc2ccsc2)NC(=O)Cn2cccn2)sc1C", "note": "(stereo not drawn) [CBK284781]", "% of control remaining": 141.221},
      {"smiles": "Cc1csc2c(N3CCC(NCCCc4cnn(C)c4)CC3)ncnc12", "note": "[CBK307291]", "% of control remaining": 136.172},
      {"smiles": "O=C(Nc1ccc2c(c1)OCCO2)N1CCN(c2cc(C(F)(F)F)ccn2)CC1", "note": "[CBK162331]", "% of control remaining": 113.781},
      {"smiles": "CN(C)CC1(O)C2CN3CCN(C2)CC1(c1ccccc1)C3", "note": "(stereo not drawn) [CBK263029]", "% of control remaining": 119.203},
      {"smiles": "CC1CCN(S(=O)(=O)c2cccc(C(=O)N3CCC(C(=O)O)CC3)c2)CC1", "note": "[CBK266790]", "% of control remaining": 86.364},
      {"smiles": "Cc1nc(O)cc(C2CCCN(C(=O)c3csc4c3CCCC4)C2)n1", "note": "(stereo not drawn) [CBK306696]", "% of control remaining": 155.917},
      {"smiles": "CC(=O)Nc1ccc(NC(=O)C2C3CCC(C3)C2C(=O)O)cc1", "note": "(stereo not drawn) [CBK263534]", "% of control remaining": 130.655},
      {"smiles": "O=C1N=C(NC2CCCCCC2)SC1Cc1nc2ccccc2[nH]1", "note": "(stereo not drawn) [CBK066789]", "% of control remaining": 132.518},
      {"smiles": "O=C(Nc1cccc(-c2noc(Cc3ccccc3)n2)c1)c1cccs1", "note": "[CBK270244]", "% of control remaining": 68.5202},
      {"smiles": "Cc1cc(S)c2cc(Br)ccc2n1", "note": "[CBK288445]", "% of control remaining": 140.904},
      {"smiles": "N=c1c2c3c(sc2ncn1CCCn1ccnc1)CCCC3", "note": "[CBK264211]", "% of control remaining": 100},
      {"smiles": "CC(C)c1nc(CCNC(=O)C2(Cn3ccnc3)CC2)no1", "note": "[CBK306828]", "% of control remaining": 145.535},
      {"smiles": "COc1ccc2c(c1)OC1(CCN(C(=O)c3ccc(C(C)=O)cc3)CC1)CC2=O", "note": "[CBK156457]", "% of control remaining": 103.888},
      {"smiles": "O=C(COc1cccnc1)N1CCN(C(=O)c2ccco2)CC1", "note": "[CBK144482]", "% of control remaining": 119.007},
      {"smiles": "COc1ccc(CC(=O)N2CCCC2c2cccc(Cc3ccc(F)cc3)n2)cc1", "note": "(stereo not drawn) [CBK286233]", "% of control remaining": 116.789},
      {"smiles": "O=C(NCc1ccco1)c1c(NC(=O)C2CCCO2)sc2c1CCC2", "note": "(stereo not drawn) [CBK268180]", "% of control remaining": 97.1736},
      {"smiles": "Cc1ccc(C(=O)NCCN2CCOCC2)cc1S(=O)(=O)N1CCCCC1", "note": "[CBK267329]", "% of control remaining": 139.066},
      {"smiles": "c1ccc(CC2CCN(CCC(c3ccccc3)c3ccccc3)CC2)cc1", "note": "[CBK126389]", "% of control remaining": 95.7571},
      {"smiles": "COc1ccc(NC(=O)COc2noc3nc(C)c(C)c(C)c23)cc1OC", "note": "[CBK269526]", "% of control remaining": 120.41},
      {"smiles": "FC(F)(F)Sc1ccc(COc2cccc3cccnc23)cc1", "note": "[CBK002776]", "% of control remaining": 80.2418},
      {"smiles": "C/C=C/c1ccc(OCCCSc2ccc(Cl)cc2)c(OC)c1", "note": "[CBK264147]", "% of control remaining": 100},
      {"smiles": "CCOc1ccc(C(=O)Nc2ccc(Cc3ccncc3)cc2)cc1[N+](=O)[O-]", "note": "[CBK262867]", "% of control remaining": 100.318},
      {"smiles": "CCC(C)CC(=O)NS(=O)(=O)c1cc(C#N)ccc1C", "note": "(stereo not drawn) [CBK306487]", "% of control remaining": 63.4184},
      {"smiles": "O=C(O)CCC(=O)Nc1nc(-c2ccc(Cl)cc2)cs1", "note": "[CBK299829]", "% of control remaining": 133.243},
      {"smiles": "COC[C@H]1CCCN1C(=O)CC[C@H]1CNC(=O)[C@@H]2[C@@H](CCN2C2CCOCC2)N1C", "note": "[CBK289037]", "% of control remaining": 149.6},
      {"smiles": "c1ccc2c(c1)nc(-c1cscn1)n2CCCCc1nnn[nH]1", "note": "[CBK267110]", "% of control remaining": 131.627},
      {"smiles": "Cc1nc(C2CCN(C(=O)c3ccccn3)CC2)c2sccn12", "note": "[CBK282238]", "% of control remaining": 116.951},
      {"smiles": "CS(=O)(=O)Nc1nccnc1N1CCN(Cc2ccc(Cl)c(Cl)c2)CC1", "note": "[CBK084267]", "% of control remaining": 79.0123},
      {"smiles": "COc1ccccc1-c1nccnc1OC(c1ccccc1)c1ccccc1", "note": "[CBK106813]", "% of control remaining": 100.736},
      {"smiles": "COc1ccc(CN(Cc2cccs2)[C@@H]2COC[C@H]2c2ccc(F)cc2)cc1", "note": "[CBK286487]", "% of control remaining": 86.5841},
      {"smiles": "CCN(CC1CCN(C)C1)C(=O)c1cc(COc2cccc(F)c2)[nH]n1", "note": "(stereo not drawn) [CBK307239]", "% of control remaining": 156.956},
      {"smiles": "COc1cccc(-c2cnc(N)c(NCc3ccco3)n2)c1", "note": "[CBK063684]", "% of control remaining": 163.948},
      {"smiles": "CC1c2ccsc2CCN1C(=O)COc1ccc(Br)cc1", "note": "(stereo not drawn) [CBK304999]", "% of control remaining": 112.969},
      {"smiles": "Cn1cc(-c2ncc(OCCc3c[nH]c4ccccc34)nc2N)cn1", "note": "[CBK145166]", "% of control remaining": 122.587},
      {"smiles": "CC(CCCC(C)(C)O)Nc1cncc(-c2cccc(C(=O)O)c2)n1", "note": "(stereo not drawn) [CBK065489]", "% of control remaining": 67.7342},
      {"smiles": "CSc1nnc(CC2CCN(C(=O)c3ccccc3C(C)=O)CC2)n1C", "note": "[CBK306720]", "% of control remaining": 119.885},
      {"smiles": "COc1ccc(Nc2nccc3c2nnn3C)cc1", "note": "[CBK287879]", "% of control remaining": 119.095},
      {"smiles": "CC(=O)Nc1cccc(NC(=O)CSc2ncnc3c2nnn3C)c1", "note": "[CBK287829]", "% of control remaining": 112.002},
      {"smiles": "O=C(O)c1cccc(Nc2nc3ccccc3nc2NS(=O)(=O)c2ccc(Br)cc2)c1", "note": "[CBK296113]", "% of control remaining": 115.447},
      {"smiles": "CN(CC(=O)OCC(=O)c1ccccc1)S(=O)(=O)c1ccc(Cl)cc1", "note": "[CBK264363]", "% of control remaining": 102.599},
      {"smiles": "Cc1nc2ccccc2nc1COC(=O)c1ccc(S(=O)(=O)N2CCCCC2C)cc1", "note": "(stereo not drawn) [CBK297932]", "% of control remaining": 122.942},
      {"smiles": "NC(=O)c1ccccc1NC(=O)c1ccc2ccccc2c1", "note": "[CBK261171]", "% of control remaining": 110.61},
      {"smiles": "Cn1cc(C(=O)N2CCc3nc(-c4ccccc4F)sc3C2)cn1", "note": "[CBK281914]", "% of control remaining": 111.814},
      {"smiles": "Cc1ccc(C(NC(=O)CC(C)C)c2ccc3cccnc3c2O)cc1", "note": "(stereo not drawn) [CBK293943]", "% of control remaining": 136.411}
    ]}
  ]
}
